For one substance, binding results are on record in paper PMC4370629, “Structural and Functional Studies of Phosphoenolpyruvate Carboxykinase from Mycobacterium tuberculosis” (PLoS ONE, 2015).

The chains behind the UniProt entries cited, without tags or fusion partners.
UniProt P9WIH3: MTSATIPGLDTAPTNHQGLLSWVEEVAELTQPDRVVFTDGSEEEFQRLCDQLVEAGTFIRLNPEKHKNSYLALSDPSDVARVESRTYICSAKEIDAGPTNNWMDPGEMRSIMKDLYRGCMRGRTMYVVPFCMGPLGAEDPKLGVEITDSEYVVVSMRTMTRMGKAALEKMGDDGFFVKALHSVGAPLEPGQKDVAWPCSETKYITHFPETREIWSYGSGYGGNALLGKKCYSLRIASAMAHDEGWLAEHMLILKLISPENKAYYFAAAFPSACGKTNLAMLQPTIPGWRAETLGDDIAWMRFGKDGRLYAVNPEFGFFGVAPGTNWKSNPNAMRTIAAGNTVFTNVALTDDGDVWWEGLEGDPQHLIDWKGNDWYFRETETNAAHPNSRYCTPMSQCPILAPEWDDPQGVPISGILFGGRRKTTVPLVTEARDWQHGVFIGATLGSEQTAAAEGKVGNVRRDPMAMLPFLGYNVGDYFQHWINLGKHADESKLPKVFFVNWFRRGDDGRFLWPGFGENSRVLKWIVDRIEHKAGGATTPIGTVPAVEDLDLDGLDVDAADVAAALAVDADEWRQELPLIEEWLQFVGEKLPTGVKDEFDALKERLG

In this assay the target is Mycobacterium tuberculosis phosphoenolpyruvate carboxykinase (Mtb Pck) (Mycobacterium tuberculosis) (UniProt P9WIH3). The experiment in a line: SEC; both purified.

Results are given in words; binding and its absence hold for the method and conditions named.

Consider “Mycobacterium tuberculosis phosphoenolpyruvate carboxykinase (Mtb Pck) (from UniProt P9WIH3) (enzyme)”, for which the binding entry is “no binding (tested: 13 mg/ml)”.
